Results of single-concentration screens

The values are deposited in ChEMBL (CHEMBL3988442, “University of Dundee, Small-Polar-MMV Screening Library” (2021)).

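Assay of Toxoplasma gondii numbers, read through their beta-galactosidase reporter with a colour substrate. Concentration: 50 µM. Higher reads as fewer parasites (inferred from which compounds were picked for retests). Size under these conditions: about 18,000 compounds, about 170 of them at 50% or above in at least one test.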

Each number is a percent effect as filed. The record does not define 0% and 100%; most values in the screen are far below 50% and negative numbers occur (in some assays of this library far below -100). Compounds were drawn at random from those tested, without regard to their results.

compound,effect
COC(=O)C1(N)CCSC1 (centres undefined),-0.4328
CC(NC(=O)c1ccncc1F)C(C)(C)CN(C)C (centres undefined),-0.7264
CC(=O)c1ccc(CNC(=O)c2scnc2C)nc1C,3.06
CCS(=O)(=O)CCn1nnc(-c2ccc(Br)cc2)n1,13.41
Cc1nccn1CC(=O)Nc1ccnn1C,-19.9
CC(C)CC(CO)NC(=O)c1cc(N(C)C)ccn1 (centres undefined),-11.55
OCCN(CCO)Cc1c[nH]cn1,-2.197
Cc1ccc(C(=O)N2CCC(=O)CC2)cc1,1.682
COc1ccc(C(=O)Nc2ccn(C)n2)cn1,2.429
Cn1cc2ccc(CN)cc2n1,-19.21
COc1ccc2ccccc2c1CN,3.01
O=C(c1ccncc1Br)N1CCCc2cccc(O)c21,14.86
Cc1nc(C(=O)Nc2cnn(C)c2)ccc1C#N,-2.804
CC(=O)Nc1cn[nH]c1,-20.18
CC(=O)c1cccc(F)c1F,11.31
CCOc1ccc(Cl)cc1CNc1nnnn1C,-5.892
CN(C)c1ccc(CNC(=O)c2ccc(O)nc2)cn1,5.609
CCNC(=O)COc1ccc(N(CC)S(C)(=O)=O)cc1,2.303
CNc1cc(C(=O)N2CCC[C@@H]2COC)ccn1,0.617
CCC(C(=O)Nc1ccccc1)N1CCS(=O)(=O)CC1 (centres undefined),-2.553
CCOC(CC)CNC(=O)c1cnn(C(C)C)c1 (centres undefined),-13.26
Cc1ccc(C(=O)N2CCN(c3nccn3C)CC2)o1,58.26
CC(N)c1nnc2n1CCC2 (centres undefined),8.662
Cn1ccc(C(=O)N2CCc3ccccc32)cc1=O,-2.271
Cc1csc(NC(=O)NC(CO)CC(C)C)n1 (centres undefined),-2.679
Cc1nn2c(S(=O)(=O)NCC3CC3)c(C)nc2s1,14.08
NC(=O)CN1CCOC(c2ccccc2C(F)(F)F)C1 (centres undefined),-9.785
Cc1noc(CN2CCN(S(C)(=O)=O)CC2)n1,3.441
CCC(CO)Nc1ncc(C(F)(F)F)cc1Cl (centres undefined),-11.03
CC1CN(c2cc(C(F)(F)F)ccn2)CCS1(=O)=O (centres undefined),-4.637
CS(=O)(=O)CC(=O)Nc1cccc(Cl)c1Cl,-5.77
CCN(CC)C(=O)CN(C)c1ncnc2c1cnn2C,-0.4912
COc1cnc(N2C[C@H](C(C)C)[C@@H](N)C2)nc1,-4.326
CC(=O)Nc1nc(C(=O)N2CCNC(=O)C2)cs1,-6.511
COCCN(C)C(=O)c1ccc(CCC(C)(C)O)cc1,24.13
CN(CCCn1cccn1)C(=O)CN1CCCC(O)C1 (centres undefined),11.08
CC1CN=C(N2CCN(c3ccc(C#N)cn3)CC2)S1 (centres undefined),-1.048
NC(=O)c1ncccc1CO,30.8
COc1cccc(C(=O)NC2CCN(C)CC2)c1OC,-1.905
O=C(CCn1ccccc1=O)NCc1ccco1,-6.903
CCN(C(=O)CN1CCNC(=O)C1)c1ccc(F)cc1,3.605
CCc1nnc(N2CCN(S(C)(=O)=O)CC2)o1,4.462
COc1ccc(NC(=O)N2CCCN(C)CC2)cc1F,-5.521
OC1(CN2CCCC2)CCNCC1,9.927
NC(=O)CC1CCCCN1c1ccc(C(F)(F)F)cn1 (centres undefined),-10.18
NC(=O)C1CCCN(Cc2ccccc2Cl)C1 (centres undefined),-22.59
CCNC(=O)COc1cccc(C(C)N)c1 (centres undefined),-11.14
COc1ccc(-n2ccnc2SCC(=O)N(C)C)cc1,0.3293
Cc1nnc(SC[C@H](O)COCc2ccccc2)s1,1.798
O=C(NCCC1=CSC2=NCCCN12)c1cnn[nH]1,9.112
CC(C)(CO)NC1CC1,0.6425
Cc1cnc(C(=O)Nc2ccccc2)cn1,-4.617
COCC(=O)Nc1cccc(C)c1C(=O)N1CCCC1,-2.742
Cc1nccn1CCCN1CCN(C)C(CCO)C1 (centres undefined),8.58
OCC1CCN(Cc2ccccc2)C1 (centres undefined),3.452
Cc1cccnc1CCNC(=O)Cc1cccnc1,-7.202
CS(=O)(=O)NCc1cc(C#N)ccc1F,4.006
COc1cc(CNc2ccc(CO)cn2)cc(OC)c1,-2.351

For reference, 3 entries once more:

- CC(=O)c1ccc(CNC(=O)c2scnc2C)nc1C | 3.06%
- CNc1cc(C(=O)N2CCC[C@@H]2COC)ccn1 | 0.617%
- OCC1CCN(Cc2ccccc2)C1 (centres undefined) | 3.452%